In all, about 52,000 sequences went through this assay and about 210 (0.4%) were called active.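 Rule for the calls: active = gene whose silencing raises cell survival under the drug, median off-target-corrected z-score across its silencing RNAs 2 or more; inactive = the rest.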 The list shows a part of the results.

A short description of this assay: Resistance to Poly (ADP-Ribose) Polymerase inhibitor: Gene Identification via Genome-wide siRNA Screen. The following applies: mouse BRCA2 R2336H ES cells, olaparib, CellTiter-Glo viability; stronger effect = higher value. In outline: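 Genome-wide siRNA screen (3 siRNAs/gene, 20 nM) in mouse ES cells carrying hypomorphic BRCA2 R2336H; olaparib 500 nM added 48 h post-transfection, CellTiter-Glo viability 72 h later. Normalized to plate-median negative control; MAD z-scores, gene median, seed-adjusted.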
For orientation: ATP-based viability assays read luminescence as a measure of living cells.
“GGGAACCAGUACAAUUACATT against 2410004H05Rik”: the z-score was inactive: -2.36.

On to GGCUGAUGGAAAUCCUUAATT against Gm672, for which the z-score is inactive: 0.184.

GGCUUUGAUGUCAGCACUGTT against AW552001: the z-score was inactive: 0.904.

With GGAGCUAGCUAGAACAAGUTT against Slmap, the z-score is inactive: -0.506.

With GGGCUUUCUGCUGAAGAGATT against Leng9, the z-score is inactive: 1.11.

With “GGGUCUCGAAGAGAUCAAUTT against B130016O10Rik”, the z-score was inactive: 0.378.

On to CCGAGUGGUUAGCUACCAGTT against Ccl24, for which the z-score was inactive: 0.385.

Take GAAAAGAGGACAGCUUGACTT against Serf1: the z-score was inactive: -0.267.

Take GCCAAUGGUGUUAACAGCATT against Slc24a4: the z-score is inactive: 0.272.

“CGUUGUGUUCUGAACAACCTT against A930025D01Rik”: the z-score was inactive: 0.308.

Take GCACAGCUAACCCUGUUAGTT against Hbld2: the z-score was inactive: -1.44.

As for GGGUAGGGCAGUCUACUUATT against F2r, the z-score was inactive: -0.23.

CCUAUCCUAGCACACCAGATT against Fosl1: the z-score was inactive: -0.224.

GGUUGUGUGCAGGAAUGGGTT against Nxn: the z-score is inactive: -1.14.

Consider GGAAGAAGCUCUAUGCUGATT against Fbxo9, for which the z-score was inactive: 0.0269.

As for GGUGGUUUCACUCCAGAUGTT against Nnp1, the z-score was inactive: -2.9.

Regarding UUUAGCCUUGCAUACGGACTT against Sfrs8, the z-score is inactive: -2.15.

Regarding GGGAAGUUUCAGGAAGAAGTT against Pbx4, the z-score is inactive: 0.67.

In the case of “GCAGGUACUGCGCUAUUAUTT against 1110012E06Rik”, the z-score is inactive: -1.93.

As to GGUAAUGUCUUUGUACUAATT against Tnfaip9, the z-score is inactive: -1.04.

Take GCCCAGUCAAGACUAUUCGTT against Csnk2b: the z-score was inactive: 0.844.

For the sequence CCGAUUUGGGUCAAUUUUATT against Gm608, the z-score was inactive: 2.03.

Consider “GGGAGAAAUGCCUUUAGUCTT against 4832406C22”, for which the z-score is inactive: 1.62.

On to “GGCCUGGAUGAAUGAAAAGTT against 2810037C03Rik”, for which the z-score was inactive: -1.88.

Take GCAAAUACGAAAAUGAGUGTT against Bfsp1: the z-score was inactive: 0.134.

As for “GGACCGAAAGCAUUCGAUUTT against 1110049B09Rik”, the z-score is inactive: 2.48.

In the case of GGAACAUUGAAAGGAUUAATT against Cspg6, the z-score is inactive: -2.83.

On to CCCUCUUUAAACAGAUUGGTT against Fmo4, for which the z-score was inactive: -0.956.

Take UAGCAGUCUACAGGAAUGGTT against Olfr1411: the z-score was inactive: -1.16.

UUGUGAGUGCAUGUGAAAUTT against Epn1: the z-score is inactive: -1.64.

Consider GGCAAUUUAUAAUGUCUCUTT against Heph, for which the z-score was inactive: 0.426.

For the sequence GGAGGCUGAGUAGGUAUGATT against Olfr137, the z-score was inactive: -1.25.

As to GCCCACUAGUCAAAAGCUUTT against Kera, the z-score was inactive: 0.836.

GGAUAACUCACAAGAGUCUTT against Zdhhc16: the z-score was inactive: 0.446.

As to “CCGCAUCCUAAGUUUUAAATT against B130050K08”, the z-score was inactive: -0.305.

As to GGAUUGCCUGCUCACUAACTT against MGC47262, the z-score is inactive: -0.74.

Consider GGUCCUGAACCAGUUAGAGTT against Myohd1, for which the z-score is inactive: -0.159.

As to GGGUUCGUUUCACAGAUCCTT against Chrd, the z-score was inactive: -2.06.

As to GGACAUCGGAUUCUACACCTT against Psg19, the z-score was inactive: 1.31.

For “GGCUUCUUUCUCGGCAAGATT against 1810015A11Rik”, the z-score is inactive: -2.75.

On to GGACAGCUCUCAUCUGAUGTT against D13Wsu64e, for which the z-score was inactive: -0.724.

As to “GGUGUAGACUAAGACAAUATT against D8Ertd812e”, the z-score is inactive: -0.151.

On to “GGUUGUAGGUUAUAGCUGUTT against 2310043K02Rik”, for which the z-score was inactive: 1.47.

On to CCCACUUUAUAGGACAUAUTT against Zhx3, for which the z-score is inactive: -0.828.

With GGAGUGUAUGAUGCUGAUGTT against S100a9, the z-score is inactive: 0.545.

Take GGAGACAGAUUGCUACAGATT against Itga7: the z-score was inactive: 0.752.

For the sequence GGCAACUGGAGAUGUGUGUTT against BC013667, the z-score was inactive: -0.951.

For the sequence “GGAGAAAAAUGUUGAUGAUTT against 4921510H08Rik”, the z-score is inactive: -0.337.

Regarding GCUGAGACCCAGAUGCAAUTT against Mal, the z-score was inactive: 0.582.

Regarding GCACCUCGUUCACCAAUAUTT against Hs2st1, the z-score is inactive: 0.0524.

As for GGUGUUUUGCUGUUAAUAATT against Foxd4, the z-score is inactive: 0.325.

As for GGAAGAUAAAUCACAAUCATT against Cdc37l1, the z-score is inactive: -0.385.

For CGAGGAUUUCUAUCCUGACTT against Ascc1, the z-score was inactive: -0.358.

Turning to GGACCAGUAUCAGAACAUCTT against Xrcc5, the z-score is inactive: 1.39.

Regarding “GGAAACAGUGAAAUGAGUATT against 2310003P10Rik”, the z-score was inactive: -0.0342.

For the sequence GGCUAUGCCAUGAACUUCUTT against Inhbc, the z-score was inactive: 0.816.

For the sequence GGGUACAGACGAUGUUUGATT against Cmya4, the z-score is inactive: 0.737.

For the sequence “GGUCAACCAUUCCUCUUGATT against A430105I19Rik”, the z-score was inactive: -2.08.

Take “CCUAUAAAGCAGCAACUGCTT against 9130213B05Rik”: the z-score is inactive: -0.9.

For UCUUUGUGAUUUCGAAGCCTT against BC019537, the z-score was inactive: -0.616.

For “GGUUCUAGGACCUAUUUUGTT against 3110002L15Rik”, the z-score is inactive: -0.914.

Take GGGAACUCGAACAAGAAUUTT against Six1: the z-score is inactive: 0.492.

With “CGCAGGUAUACCUUAAAGCTT against 1810007M14Rik”, the z-score was inactive: -1.25.

For the sequence GCUUAAAGUACGAUCAGCUTT against Wdr3, the z-score is inactive: -1.69.

On to CGAGUGACAAAUGAAAUCGTT against Ercc4, for which the z-score is inactive: 1.42.

Take GGAAGCUAUAUAUCAAGAATT against Tcea1: the z-score is inactive: -0.23.

Consider GGAAUUGAUUACUAUUACCTT against AI314180, for which the z-score is inactive: -0.952.

As to “GCGCGAUUCAGAGGUUUCATT against A430091O22Rik”, the z-score is inactive: -0.568.

Take “CCUGGGACCAACACAAAAUTT against 1700025E21Rik”: the z-score was inactive: 1.94.

In the case of GGACGUAGUACCCAUGAAUTT against Adora2a, the z-score was inactive: 1.58.

For the sequence “GGAAGUGCUUUGAAGAAGATT against D330017J20Rik”, the z-score is inactive: -0.955.

For GCAAUGAACAAAUUUGGUGTT against Narg1, the z-score is inactive: -0.186.

Take CCUACAACGAACGGGAGAATT against Dpm1: the z-score is inactive: -1.42.

Regarding CGGUCCCAAACGGUCAAGUTT against AI851790, the z-score was inactive: -0.429.

In the case of CUCCAUAAAAGGAAGUCUATT against Olfr1202, the z-score is inactive: -1.2.

In the case of GGAUAUGUUUCUAGUAUCATT against Cd226, the z-score was inactive: -1.79.

For the sequence GGAUCUGAGAAAUGAAAUCTT against Slc3a1, the z-score was inactive: 0.0826.

“GGGCAAAAGCUAAUGACUCTT against 4933409K07Rik”: the z-score was inactive: -0.856.

On to GGCGUGGAUGACCUAGACUTT against Actr3, for which the z-score is inactive: -1.2.

Consider GGAUCUCAUUCACAGAUUATT against Rasgrp3, for which the z-score is inactive: -0.961.

On to GGAGAAACUGGCUUUCUCUTT against Zp3, for which the z-score was inactive: 0.196.

With GGCAGAUGCAAUCCAUUGGTT against Tas2r104, the z-score was inactive: -1.67.

Consider GGCAUCUUUCACAGUUUUGTT against Hspa12b, for which the z-score was inactive: 0.94.

As for GGAGAAAGAGAAAAUCGCUTT against Csnk1g2, the z-score is inactive: 0.0148.

Take “GGUAUUAAGUUCCUGUAAUTT against 4631427C17Rik”: the z-score was inactive: 0.102.

Regarding “CGAUACAGGACCGAAGGAGTT against 2900090M10Rik”, the z-score was inactive: 0.326.

In the case of GGCCAGGAAAGCAUUAAGATT against Trim2, the z-score was inactive: 0.408.

With GGAACAUCCUUUGAAAACATT against Ptprk, the z-score was inactive: -0.599.

GGACAGGUACAGCAUCAACTT against Siat9: the z-score was inactive: 1.14.

ACAAAGAAGCGAUUUCUAUTT against Wtip: the z-score is inactive: -0.669.

Take GGACUGUGCAGUUAUUGUCTT against Psma6: the z-score was inactive: -3.39.

GGCCUUGAUAUCAACAAGATT against Pkia: the z-score was inactive: 1.05.

Regarding GCGAAAAGACCAAUAAUGGTT against Ebf1, the z-score was inactive: 0.479.

Take GCAAGAACCUGGUGCGAAATT against Lrrc4b: the z-score was inactive: -0.297.

As to UCACCAUCUUGAAGAUUCGTT against Olfr486, the z-score is inactive: 1.16.

Turning to GCAAGAGUCUGCUACGACATT against Opn1sw, the z-score was inactive: 0.0796.

As for GGAAGAAAAACAGCAGAUCTT against Dncic1, the z-score is inactive: -1.14.

Take CCAGAACUGUGAGUGGAUUTT against Nrp2: the z-score was inactive: -0.457.

Take CUUUCCUUCACUGAUGUCATT against Olfr666: the z-score is inactive: -2.37.

As to “GCUGAAAACACACCUAGCATT against 4930429M06Rik”, the z-score was inactive: 3.56.

“GCCAAGAUCCCACCAGUUATT against C230078M08Rik”: the z-score was inactive: -0.799.

As to “GGAAGAAUAUUGGCCCUGUTT against 2810004A10Rik”, the z-score is inactive: -1.2.

As to GGACCUGAACGAUCUCGUUTT against MGC25972, the z-score was inactive: 0.132.

Source of the values: PubChem BioAssay AID1347423 (Functional Genomics Laboratory (NCATS/FGL), 2020).
